Experimental data from paper PMC5548489.
Results are given in words; binding and its absence hold for the method and conditions named. Binding seen in cells or lysates may run through a third protein. These calls come from enrichment with a bait or labelling near it, and not all partners need be listed.

Chains of the proteins cited; added tags and fusions are not shown.
UniProt P03372: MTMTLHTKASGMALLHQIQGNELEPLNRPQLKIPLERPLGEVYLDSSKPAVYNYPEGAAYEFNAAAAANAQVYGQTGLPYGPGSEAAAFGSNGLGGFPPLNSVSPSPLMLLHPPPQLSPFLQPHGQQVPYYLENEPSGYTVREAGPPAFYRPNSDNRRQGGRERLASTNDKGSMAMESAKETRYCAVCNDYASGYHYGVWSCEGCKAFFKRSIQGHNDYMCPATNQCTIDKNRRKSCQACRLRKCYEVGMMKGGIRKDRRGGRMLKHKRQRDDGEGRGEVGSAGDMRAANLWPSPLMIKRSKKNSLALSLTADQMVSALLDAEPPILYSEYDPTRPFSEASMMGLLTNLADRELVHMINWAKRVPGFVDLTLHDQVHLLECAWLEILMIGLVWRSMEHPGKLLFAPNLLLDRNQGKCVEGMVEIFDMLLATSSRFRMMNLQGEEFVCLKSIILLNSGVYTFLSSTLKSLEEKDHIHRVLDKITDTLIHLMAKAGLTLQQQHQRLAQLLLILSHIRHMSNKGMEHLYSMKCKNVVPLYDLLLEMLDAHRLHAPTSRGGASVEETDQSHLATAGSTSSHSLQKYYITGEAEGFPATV

B1: NUP155 (protein, UniProt O75694 1-1391)
chain: MPSSLLGAAMPASTSAAALQEALENAGRLIDRQLQEDRMYPDLSELLMVSAPNNPTVSGMSDMDYPLQGPGLLSVPNLPEISSIRRVPLPPELVEQFGHMQCNCMMGVFPPISRAWLTIDSDIFMWNYEDGGDLAYFDGLSETILAVGLVKPKAGIFQPHVRHLLVLATPVDIVILGLSYANLQTGSGVLNDSLSGGMQLLPDPLYSLPTDNTYLLTITSTDNGRIFLAGKDGCLYEVAYQAEAGWFSQRCRKINHSKSSLSFLVPSLLQFTFSEDDPILQIAIDNSRNILYTRSEKGVIQVYDLGQDGQGMSRVASVSQNAIVSAAGNIARTIDRSVFKPIVQIAVIENSESLDCQLLAVTHAGVRLYFSTCPFRQPLARPNTLTLVHVRLPPGFSASSTVEKPSKVHRALYSKGILLMAASENEDNDILWCVNHDTFPFQKPMMETQMTAGVDGHSWALSAIDELKVDKIITPLNKDHIPITDSPVVVQQHMLPPKKFVLLSAQGSLMFHKLRPVDQLRHLLVSNVGGDGEEIERFFKLHQEDQACATCLILACSTAACDREVSAWATRAFFRYGGEAQMRFPTTLPPPSNVGPILGSPVYSSSPVPSGSPYPNPSFLGTPSHGIQPPAMSTPVCALGNPATQATNMSCVTGPEIVYSGKHNGICIYFSRIMGNIWDASLVVERIFKSGNREITAIESSVPCQLLESVLQELKGLQEFLDRNSQFAGGPLGNPNTTAKVQQRLIGFMRPENGNPQQMQQELQRKFHEAQLSEKISLQAIQQLVRKSYQALALWKLLCEHQFTIIVAELQKELQEQLKITTFKDLVIRDKELTGALIASLINCYIRDNAAVDGISLHLQDICPLLYSTDDAICSKANELLQRSRQVQNKTEKERMLRESLKEYQKISNQVDLSNVCAQYRQVRFYEGVVELSLTAAEKKDPQGLGLHFYKHGEPEEDIVGLQAFQERLNSYKCITDTLQELVNQSKAAPQSPSVPKKPGPPVLSSDPNMLSNEEAGHHFEQMLKLSQRSKDELFSIALYNWLIQVDLADKLLQVASPFLEPHLVRMAKVDQNRVRYMDLLWRYYEKNRSFSNAARVLSRLADMHSTEISLQQRLEYIARAILSAKSSTAISSIAADGEFLHELEEKMEVARIQLQIQETLQRQYSHHSSVQDAVSQLDSELMDITKLYGEFADPFKLAECKLAIIHCAGYSDPILVQTLWQDIIEKELSDSVTLSSSDRMHALSLKIVLLGKIYAGTPRFFPLDFIVQFLEQQVCTLNWDVGFVIQTMNEIGVPLPRLLEVYDQLFKSRDPFWNRMKKPLHLLDCIHVLLIRYVENPSQVLNCERRRFTNLCLDAVCGYLVELQSMSSSVAVQAITGNFKSLQAKLERLH
B2: NUP93 (protein, UniProt Q8N1F7 1-819)
chain: MDTEGFGELLQQAEQLAAETEGISELPHVERNLQEIQQAGERLRSRTLTRTSQETADVKASVLLGSRGLDISHISQRLESLSAATTFEPLEPVKDTDIQGFLKNEKDNALLSAIEESRKRTFGMAEEYHRESMLVEWEQVKQRILHTLLASGEDALDFTQESEPSYISDVGPPGRSSLDNIEMAYARQIYIYNEKIVNGHLQPNLVDLCASVAELDDKSISDMWTMVKQMTDVLLTPATDALKNRSSVEVRMEFVRQALAYLEQSYKNYTLVTVFGNLHQAQLGGVPGTYQLVRSFLNIKLPAPLPGLQDGEVEGHPVWALIYYCMRCGDLLAASQVVNRAQHQLGEFKTWFQEYMNSKDRRLSPATENKLRLHYRRALRNNTDPYKRAVYCIIGRCDVTDNQSEVADKTEDYLWLKLNQVCFDDDGTSSPQDRLTLSQFQKQLLEDYGESHFTVNQQPFLYFQVLFLTAQFEAAVAFLFRMERLRCHAVHVALVLFELKLLLKSSGQSAQLLSHEPGDPPCLRRLNFVRLLMLYTRKFESTDPREALQYFYFLRDEKDSQGENMFLRCVSELVIESREFDMILGKLENDGSRKPGVIDKFTSDTKPIINKVASVAENKGLFEEAAKLYDLAKNADKVLELMNKLLSPVVPQISAPQSNKERLKNMALSIAERYRAQGISANKFVDSTFYLLLDLITFFDEYHSGHIDRAFDIIERLKLVPLNQESVEERVAAFRNFSDEIRHNLSEVLLATMNILFTQFKRLKGTSPSSSSRPQRVIEDRDSQLRSQARTLITFAGMIPYRTSGDTNARLVQMEVLMN
B3: SEC24B (protein, UniProt O95487 1-1268)
chain: MSAPAGSSHPAASARIPPKFGGAAVSGAAAPAGPGAGPAPHQQNGPAQNQMQVPSGYGLHHQNYIAPSGHYSQGPGKMTSLPLDTQCGDYYSALYTVPTQNVTPNTVNQQPGAQQLYSRGPPAPHIVGSTLGSFQGAASSASHLHTSASQPYSSFVNHYNSPAMYSASSSVASQGFPSTCGHYAMSTVSNAAYPSVSYPSLPAGDTYGQMFTSQNAPTVRPVKDNSFSGQNTAISHPSPLPPLPSQQHHQQQSLSGYSTLTWSSPGLPSTQDNLIRNHTGSLAVANNNPTITVADSLSCPVMQNVQPPKSSPVVSTVLSGSSGSSSTRTPPTANHPVEPVTSVTQPSELLQQKGVQYGEYVNNQASSAPTPLSSTSDDEEEEEEDEEAGVDSSSTTSSASPMPNSYDALEGGSYPDMLSSSASSPAPDPAPEPDPASAPAPASAPAPVVPQPSKMAKPFGYGYPTLQPGYQNATAPLISGVQPSNPVYSGFQQYPQQYPGVNQLSSSIGGLSLQSSPQPESLRPVNLTQERNILPMTPVWAPVPNLNADLKKLNCSPDSFRCTLTNIPQTQALLNKAKLPLGLLLHPFRDLTQLPVITSNTIVRCRSCRTYINPFVSFIDQRRWKCNLCYRVNDVPEEFMYNPLTRSYGEPHKRPEVQNSTVEFIASSDYMLRPPQPAVYLFVLDVSHNAVEAGYLTILCQSLLENLDKLPGDSRTRIGFMTFDSTIHFYNLQEGLSQPQMLIVSDIDDVFLPTPDSLLVNLYESKELIKDLLNALPNMFTNTRETHSALGPALQAAFKLMSPTGGRVSVFQTQLPSLGAGLLQSREDPNQRSSTKVVQHLGPATDFYKKLALDCSGQQTAVDLFLLSSQYSDLASLACMSKYSAGCIYYYPSFHYTHNPSQAEKLQKDLKRYLTRKIGFEAVMRIRCTKGLSMHTFHGNFFVRSTDLLSLANINPDAGFAVQLSIEESLTDTSLVCFQTALLYTSSKGERRIRVHTLCLPVVSSLADVYAGVDVQAAICLLANMAVDRSVSSSLSDARDALVNAVVDSLSAYGSTVSNLQHSALMAPSSLKLFPLYVLALLKQKAFRTGTSTRLDDRVYAMCQIKSQPLVHLMKMIHPNLYRIDRLTDEGAVHVNDRIVPQPPLQKLSAEKLTREGAFLMDCGSVFYIWVGKGCDNNFIEDVLGYTNFASIPQKMTHLPELDTLSSERARSFITWLRDSRPLSPILHIVKDESPAKAEFFQHLIEDRTEAAFSYYEFLLHVQQQICK
B4: SRP72 (protein, UniProt O76094 1-671)
chain: MASGGSGGVSVPALWSEVNRYGQNGDFTRALKTVNKILQINKDDVTALHCKVVCLIQNGSFKEALNVINTHTKVLANNSLSFEKAYCEYRLNRIENALKTIESANQQTDKLKELYGQVLYRLERYDECLAVYRDLVRNSQDDYDEERKTNLSAVVAAQSNWEKVVPENLGLQEGTHELCYNTACALIGQGQLNQAMKILQKAEDLCRRSLSEDTDGTEEDPQAELAIIHGQMAYILQLQGRTEEALQLYNQIIKLKPTDVGLLAVIANNIITINKDQNVFDSKKKVKLTNAEGVEFKLSKKQLQAIEFNKALLAMYTNQAEQCRKISASLQSQSPEHLLPVLIQAAQLCREKQHTKAIELLQEFSDQHPENAAEIKLTMAQLKISQGNISKACLILRSIEELKHKPGMVSALVTMYSHEEDIDSAIEVFTQAIQWYQNHQPKSPAHLSLIREAANFKLKYGRKKEAISDLQQLWKQNPKDIHTLAQLISAYSLVDPEKAKALSKHLPSSDSMSLKVDVEALENSAGATYIRKKGGKVTGDSQPKEQGQGDLKKKKKKKKGKLPKNYDPKVTPDPERWLPMRERSYYRGRKKGKKKDQIGKGTQGATAGASSELDASKTVSSPPTSPRPGSAATVSASTSNIIPPRHQKPAGAPATKKKQQQKKKKGGKGGW
B5: STXBP2 (protein, UniProt Q15833 1-593)
chain: MAPSGLKAVVGEKILSGVIRSVKKDGEWKVLIMDHPSMRILSSCCKMSDILAEGITIVEDINKRREPIPSLEAIYLLSPTEKSVQALIKDFQGTPTFTYKAAHIFFTDTCPEPLFSELGRSRLAKVVKTLKEIHLAFLPYEAQVFSLDAPHSTYNLYCPFRAEERTRQLEVLAQQIATLCATLQEYPAIRYRKGPEDTAQLAHAVLAKLNAFKADTPSLGEGPEKTRSQLLIMDRAADPVSPLLHELTFQAMAYDLLDIEQDTYRYETTGLSEAREKAVLLDEDDDLWVELRHMHIADVSKKVTELLRTFCESKRLTTDKANIKDLSQILKKMPQYQKELNKYSTHLHLADDCMKHFKGSVEKLCSVEQDLAMGSDAEGEKIKDSMKLIVPVLLDAAVPAYDKIRVLLLYILLRNGVSEENLAKLIQHANVQAHSSLIRNLEQLGGTVTNPGGSGTSSRLEPRERMEPTYQLSRWTPVIKDVMEDAVEDRLDRNLWPFVSDPAPTASSQAAVSARFGHWHKNKAGIEARAGPRLIVYVMGGVAMSEMRAAYEVTRATEGKWEVLIGSSHILTPTRFLDDLKALDKKLEDIALP
B6: VPS11 (protein, UniProt Q9H270 1-941)
chain: MAAYLQWRRFVFFDKELVKEPLSNDGAAPGATPASGSAASKFLCLPPGITVCDSGRGSLVFGDMEGQIWFLPRSLQLTGFQAYKLRVTHLYQLKQHNILASVGEDEEGINPLVKIWNLEKRDGGNPLCTRIFPAIPGTEPTVVSCLTVHENLNFMAIGFTDGSVTLNKGDITRDRHSKTQILHKGNYPVTGLAFRQAGKTTHLFVVTTENVQSYIVSGKDYPRVELDTHGCGLRCSALSDPSQDLQFIVAGDECVYLYQPDERGPCFAFEGHKLIAHWFRGYLIIVSRDRKVSPKSEFTSRDSQSSDKQILNIYDLCNKFIAYSTVFEDVVDVLAEWGSLYVLTRDGRVHALQEKDTQTKLEMLFKKNLFEMAINLAKSQHLDSDGLAQIFMQYGDHLYSKGNHDGAVQQYIRTIGKLEPSYVIRKFLDAQRIHNLTAYLQTLHRQSLANADHTTLLLNCYTKLKDSSKLEEFIKKKSESEVHFDVETAIKVLRQAGYYSHALYLAENHAHHEWYLKIQLEDIKNYQEALRYIGKLPFEQAESNMKRYGKILMHHIPEQTTQLLKGLCTDYRPSLEGRSDREAPGCRANSEEFIPIFANNPRELKAFLEHMSEVQPDSPQGIYDTLLELRLQNWAHEKDPQVKEKLHAEAISLLKSGRFCDVFDKALVLCQMHDFQDGVLYLYEQGKLFQQIMHYHMQHEQYRQVISVCERHGEQDPSLWEQALSYFARKEEDCKEYVAAVLKHIENKNLMPPLLVVQTLAHNSTATLSVIRDYLVQKLQKQSQQIAQDELRVRRYREETTRIRQEIQELKASPKIFQKTKCSICNSALELPSVHFLCGHSFHQHCFESYSESDADCPTCLPENRKVMDMIRAQEQKRDLHDQFQHQLKCSNDSFSVIADYFGRGVFNKLTLLTDPPTARLTSSLEAGLQRDLLMHSRRGT

molecular target: estrogen receptor alpha (ER) (human (endogenous in MCF-7 and ZR-75)) (UniProt P03372); experiment: affinity purification with mass spectrometry; anti-ER antibody (Santa Cruz sc-8002) on Dynabeads Protein G, 1.5 mg lysate of MCF-7 or ZR-75 cells overnight at 4°C; cells starved, vehicle or 10 µM ERX-11 for 2 hr, then 10 nM E2 for 2 hr; the named proteins are ER binders whose co-precipitation was disrupted by ERX-11

binding, binds:
B1, B2, B3, B4, B5, B6
